# Values quoted from earlier work as cited in US9572817B2, “Use of androgens for vascular regeneration and endothelial repair” (THE HEART RESEARCH INSTITUTE LTD., priority 2008, dated 2017).
# Some of these results come from one statement about several compounds together.
# Conditions: intramuscular injection; cited from earlier work
structure (smiles),measurement,value
CCCCCCC(=O)O[C@H]1CC[C@H]2[C@@H]3CCC4=CC(=O)CC[C@]4(C)[C@H]3CC[C@]12C [Testosterone enanthate],time of gradual decline of serum testosterone levels,≤ 2 weeks
